Measurements: PubChem BioAssay AID540275 (National Center for Advancing Translational Sciences (NCATS), 2011)
The whole screen tested about 320,000 compounds, of which about 620 (0.19%) were called active. Inconclusive means that the source gave no clear call. Such entries were picked first, then a sample of the others. Rule as the data show it: active = activation above about 80%; inconclusive = between about 30% and that limit; inactive = weaker than that.

Protein sequences, listed by entry. Tags and fused reporters are not part of them.
UniProt Q8NER1, whole entry, looked up: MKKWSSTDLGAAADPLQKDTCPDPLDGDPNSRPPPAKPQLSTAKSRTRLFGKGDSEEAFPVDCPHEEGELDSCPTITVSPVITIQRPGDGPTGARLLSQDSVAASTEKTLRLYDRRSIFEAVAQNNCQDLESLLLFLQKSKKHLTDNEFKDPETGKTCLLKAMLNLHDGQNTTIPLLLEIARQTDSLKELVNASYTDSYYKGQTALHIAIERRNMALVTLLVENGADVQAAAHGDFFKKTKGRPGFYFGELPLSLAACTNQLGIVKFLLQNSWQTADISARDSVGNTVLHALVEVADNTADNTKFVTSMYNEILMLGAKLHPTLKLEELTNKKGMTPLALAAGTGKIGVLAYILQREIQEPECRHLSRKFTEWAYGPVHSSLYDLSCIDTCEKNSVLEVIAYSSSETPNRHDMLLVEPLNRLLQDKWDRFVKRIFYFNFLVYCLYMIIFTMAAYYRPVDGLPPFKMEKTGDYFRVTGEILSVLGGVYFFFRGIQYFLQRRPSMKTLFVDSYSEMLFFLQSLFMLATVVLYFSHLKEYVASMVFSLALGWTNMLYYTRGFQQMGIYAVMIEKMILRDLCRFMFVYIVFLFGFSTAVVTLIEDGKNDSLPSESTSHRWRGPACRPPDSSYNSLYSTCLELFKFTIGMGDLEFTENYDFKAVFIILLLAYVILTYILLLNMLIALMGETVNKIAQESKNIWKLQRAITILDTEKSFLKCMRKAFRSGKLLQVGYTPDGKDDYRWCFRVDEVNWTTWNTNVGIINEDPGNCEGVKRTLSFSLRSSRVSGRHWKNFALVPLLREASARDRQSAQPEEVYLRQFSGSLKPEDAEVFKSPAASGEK

These molecules were tested against Transient receptor potential cation channel subfamily V member 1 (Homo sapiens) (UniProt Q8NER1) (assay: HTS Assay for Compounds that Act as Agonists of the Vanilloid Receptor 1). Settings: TRPV1-expressing cells, Fluo-8 calcium influx, agonist mode; at 8.33 µM, stronger effect = higher value.
Outline: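 Fluo-8 calcium influx in TRPV1-expressing cells, kinetic read (ex 480/em 520 nm). Compound added and read 3 min for agonist activity, followed by capsaicin at EC20 final and 2 min further read for enhancement.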
Also: 0% is about no effect.

| SMILES | activation |
| --- | --- |
| COc1ccccc1CNC(=O)CN(C)S(=O)(=O)c1ccc2c(c1)c(=O)n(C)c(=O)n2C | inactive: 2.49% |
| C[C@]12CC[C@@H]3c4ccc(OC(=O)c5ccccc5)cc4CC[C@H]3[C@@H]1CC[C@@H]2O | inactive: 0.852% |
| COc1ccc(C(=O)NC(=O)NC2(C(Cl)(Cl)Cl)OCCO2)cc1 | inconclusive: 33.5% |
| CC1CC(NC(=O)Cc2ccc(Br)cc2)CC(C)(C)C1 (stereo not drawn) | inconclusive: 33.1% |
| CC(C)CCOC(=O)/C(=C/c1ccco1)NC(=O)/C=C/c1ccccc1 | inconclusive: 37% |
| O=C(CSc1nc2ccccc2c(=O)n1CC1CCCCC1)N1CCOCC1 | inconclusive: 66.4% |
| Nc1ccc(C(=O)OCC(=O)NC(=O)c2ccccc2)cc1[N+](=O)[O-] | inactive: 0.626% |
| CC(=O)N(Cc1ccc(F)cc1)C1=C(NCc2ccccc2)C(=O)c2ccccc2C1=O | inactive: 6.95% |
| O=C1c2cccc3c([N+](=O)[O-])ccc(c23)C(=O)N1Cc1cccnc1 | inactive: 3.53% |
| O=C(N/N=C/c1ccccc1F)NC12CC3CC(CC(C3)C1)C2 | inconclusive: 53.8% |
| Cc1ccc(C(=O)NC(C)c2ccc(F)cc2)cc1 (stereo not drawn) | inconclusive: 36.9% |
| COc1ccc2c(c1)CCc1c(C(=O)N3CCCc4ccccc43)noc1-2 | inactive: 4.57% |
| O=S(=O)(Nc1cc(Br)cc2cccnc12)c1cccc2ccccc12 | inactive: 1.21% |
| S=C(NCCNCc1ccccc1)NC1CCCCC1 | inactive: 17.7% |
| CC(C)(C)c1ccc(N2C(=N)SCC2=O)cc1 | inconclusive: 49.4% |
| C/C(CC(=O)N1CCN(C=O)CC1)=N\NC(=O)c1ccc([N+](=O)[O-])cc1 | inactive: -2.5% |
| CC(C)c1ccc(CCNC(=O)c2ccc([N+](=O)[O-])cc2)cc1 | inconclusive: 75.1% |
| O=C(CSc1nc2c(oc3ccccc32)c(=O)n1CC1CCCO1)NCc1ccc(F)cc1 (stereo not drawn) | inconclusive: 47.9% |
| O=C1NC(=Nc2ccccc2)CS1 | inactive: -0.696% |
| Cn1nccc1NC(=O)Nc1ccc(OC(F)(F)F)cc1 | inconclusive: 70.7% |

| SMILES | activation |
| --- | --- |
| Nc1nonc1-n1nnc(C(=O)N/N=C/c2cccs2)c1CSc1ccccc1 | inconclusive: 44.8% |
| O=C(NCc1ccc2c(c1)OCO2)c1nc(Cn2cc([N+](=O)[O-])cn2)no1 | inconclusive: 38.2% |
| CCOC(=O)c1cnc2c(C(F)(F)F)cccc2c1NCCCN1CCOCC1 | inconclusive: 50.2% |
| COC(=O)c1cc2c(-c3ccccc3)cc3ccccn3c-2c1C(=O)OC | inactive: 19.6% |
| Cc1nc(CNC(=O)c2cc(COc3c(F)cccc3F)on2)cs1 | inconclusive: 34.3% |
| O=C1c2ccccc2-c2nnc(-c3ccccc3)cc21 | inactive: 17.7% |
| CC(=O)c1ccc(NC(=O)NC2CCCCCCC2)cc1 | inconclusive: 53.3% |
| O=C(c1cc2cc(C(F)(F)F)ccc2s1)N1CCOCC1 | inconclusive: 62.8% |
| COc1ccc(CCn2c(-c3ccncc3)n[nH]c2=S)cc1OC | inactive: 1.46% |
| OC1CCC(NC(=S)Nc2ccc(SC(F)F)cc2)CC1 (stereo not drawn) | inconclusive: 35% |
| O=C(Nc1ccccc1)N1CCCC(c2nc(-c3cccs3)no2)C1 (stereo not drawn) | inconclusive: 31.6% |
| O=C(Nc1nc(-c2ccc(F)c(F)c2)cs1)C1=COCCO1 | inconclusive: 45.1% |
| Cc1ccc(C(=O)N2CC(C)CC(C)C2)cc1S(=O)(=O)N1CCCCC1 (stereo not drawn) | inconclusive: 57.4% |
| Cc1ccc(NC(=O)c2c(C)nn(-c3ccccc3)c2Cl)cc1 | inconclusive: 61.2% |
| CCn1cc(C(=O)NCCC(C)C)c(=O)c2cc(S(=O)(=O)N3CCCCC3)ccc21 | inconclusive: 54.2% |
| O=C(CCN1C(=O)C2CCCCC2C1=O)Nc1ccc(OC(F)F)cc1 (stereo not drawn) | inconclusive: 38.6% |
| CCn1c(=N)n(CC(=O)c2cccc([N+](=O)[O-])c2)c2ccccc21 | inactive: -1.96% |
| O=C(OCc1cccnc1)C1=Cc2ccccc2OC1 | inconclusive: 44.1% |
| CCOC(=O)c1sc(Nc2nc3c(F)cccc3s2)cc1C | inactive: 13% |
| CSC(=S)N/N=C/c1ccc(N(C)C)cc1 | inactive: 14% |

| SMILES | activation |
| --- | --- |
| CCc1cccc(OCCOC(=O)CNS(=O)(=O)c2ccc(NC(C)=O)cc2)c1 | inactive: -3.75% |
| CCOC(=O)c1cnc(-n2nc(C)cc2C)nc1NCc1ccc2c(c1)OCO2 | inactive: 17.1% |
| CCOc1cc2[nH]c(=S)n(CCOC)c(=O)c2cc1OCC | inactive: 4.48% |
| Cc1ccnc(NC(c2ccccn2)c2c(C)[nH]c3ccccc23)c1 (stereo not drawn) | inconclusive: 32.8% |
| CCN1CCN(S(=O)(=O)c2ccc(S(=O)(=O)N(CC)Cc3ccccc3)cc2)CC1 | inconclusive: 30.6% |
| CCOC(=O)C1(Cc2ccccc2C(F)(F)F)CCN(C2CCSC2)CC1 (stereo not drawn) | inconclusive: 38.3% |
| CC1=NN(c2ccccc2)C(=O)C1C=Nc1ccc(N(C)C)cc1 (stereo not drawn) | inactive: 6.03% |
| COc1ccc(CNC(=O)Oc2ccccc2)cc1Cl | inconclusive: 33.6% |
| C=C(C)c1cccc(C(C)(C)NC(=O)N2CCC(C)CC2)c1 | inconclusive: 44.8% |
| CC(=O)c1ccc(N2Cc3ccccc3C2=NC(=O)c2cccs2)cc1 | inconclusive: 32.3% |
| O=C(N/N=C/c1ccc(Cl)cc1Cl)c1ccc(-n2cnnn2)cc1 | inconclusive: 45.6% |
| CCOC(=O)C1CCN(CC(=O)Nc2c(C(=O)OC)[nH]c3ccc(Cl)cc23)CC1 | inconclusive: 64.6% |
| Cc1sc2nc(SCC(=O)C(C)(C)C)n(Cc3ccco3)c(=O)c2c1C | inconclusive: 32.9% |
| CC1(O)c2ccccc2C(=O)N1CCc1ccccc1F (stereo not drawn) | inconclusive: 37.6% |
| O=c1[nH][nH]cc1C=Nc1ccc(Oc2ccccc2)cc1 | inconclusive: 79.7% |
| CCOC(=O)c1ccc(NC(=O)CCc2nc(-c3cccc(C)c3)no2)cc1 | inconclusive: 51.1% |
| CCCN(CCC)Cc1c(C(=O)N/N=C/c2cccs2)nnn1-c1nonc1N | inconclusive: 40.2% |
| OC1CCN(c2ncnc3c2nnn3Cc2c(F)cccc2Cl)CC1 | inconclusive: 45.7% |

Single entries from the results shown:
In activation, `CCOC(=O)c1ccc(NC(=O)CCc2nc(-c3cccc(C)c3)no2)cc1` has inconclusive: 51.1%
In activation, `Cc1sc2nc(SCC(=O)C(C)(C)C)n(Cc3ccco3)c(=O)c2c1C` has inconclusive: 32.9%
In activation, `CCOC(=O)C1(Cc2ccccc2C(F)(F)F)CCN(C2CCSC2)CC1` (stereo not drawn) has inconclusive: 38.3%
